Source: publication PMC3283662

Amino acid sequences for entries named in this document (tags omitted). A change or cut given only in a name is not applied to a line headed by its entry.
UniProt Q865R3: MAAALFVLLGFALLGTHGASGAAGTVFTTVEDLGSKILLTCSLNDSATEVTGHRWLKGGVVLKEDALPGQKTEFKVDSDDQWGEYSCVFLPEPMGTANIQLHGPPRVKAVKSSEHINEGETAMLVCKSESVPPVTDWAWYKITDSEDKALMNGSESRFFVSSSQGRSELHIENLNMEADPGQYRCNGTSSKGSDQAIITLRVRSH

Target: extracellular matrix metalloproteinase inducer (EMMPRIN) (bovine (endogenous in BAECs)) (UniProt Q865R3)
Test: co-IP; BAEC lysates (1% NP-40, 0.1% SDS, 0.1% deoxycholate, pH 7.5) precipitated with goat anti-EMMPRIN antibody and Protein G, goat IgG as control; blotted for eNOS and GOLPH3; washed with 50 mM Tris-HCl pH 7.5, 0.1 mM EDTA, 0.1 mM EGTA; repeated with 150 mM NaCl in the wash buffer (Figure S2)

binding: binds
B1: Endothelial nitric oxide synthase (eNOS) (enzyme, UniProt P29473 1-1205)
chain: MGNLKSVGQEPGPPCGLGLGLGLGLCGKQGPASPAPEPSRAPAPATPHAPDHSPAPNSPTLTRPPEGPKFPRVKNWELGSITYDTLCAQSQQDGPCTPRCCLGSLVLPRKLQTRPSPGPPPAEQLLSQARDFINQYYSSIKRSGSQAHEERLQEVEAEVASTGTYHLRESELVFGAKQAWRNAPRCVGRIQWGKLQVFDARDCSSAQEMFTYICNHIKYATNRGNLRSAITVFPQRAPGRGDFRIWNSQLVRYAGYRQQDGSVRGDPANVEITELCIQHGWTPGNGRFDVLPLLLQAPDEAPELFVLPPELVLEVPLEHPTLEWFAALGLRWYALPAVSNMLLEIGGLEFSAAPFSGWYMSTEIGTRNLCDPHRYNILEDVAVCMDLDTRTTSSLWKDKAAVEINLAVLHSFQLAKVTIVDHHAATVSFMKHLDNEQKARGGCPADWAWIVPPISGSLTPVFHQEMVNYILSPAFRYQPDPWKGSATKGAGITRKKTFKEVANAVKISASLMGTLMAKRVKATILYASETGRAQSYAQQLGRLFRKAFDPRVLCMDEYDVVSLEHEALVLVVTSTFGNGDPPENGESFAAALMEMSGPYNSSPRPEQHKSYKIRFNSVSCSDPLVSSWRRKRKESSNTDSAGALGTLRFCVFGLGSRAYPHFCAFARAVDTRLEELGGERLLQLGQGDELCGQEEAFRGWAKAAFQASCETFCVGEEAKAAAQDIFSPKRSWKRQRYRLSTQAEGLQLLPGLIHVHRRKMFQATVLSVENLQSSKSTRATILVRLDTAGQEGLQYQPGDHIGICPPNRPGLVEALLSRVEDPPPPTESVAVEQLEKGSPGGPPPSWVRDPRLPPCTLRQALTFFLDITSPPSPRLLRLLSTLAEEPSEQQELETLSQDPRRYEEWKWFRCPTLLEVLEQFPSVALPAPLLLTQLPLLQPRYYSVSSAPNAHPGEVHLTVAVLAYRTQDGLGPLHYGVCSTWLSQLKTGDPVPCFIRGAPSFRLPPDPYVPCILVGPGTGIAPFRGFWQERLHDIESKGLQPAPMTLVFGCRCSQLDHLYRDEVQDAQERGVFGRVLTAFSREPDSPKTYVQDILRTELAAEVHRVLCLERGHMFVCGDVTMATSVLQTVQRILATEGDMELDEAGDVIGVLRDQQRYHEDIFGLTLRTQEVTSRIRTQSFSLQERHLRGAVPWAFDPPGPDTPGP

binding: binds
B2: Golgi phosphoprotein 3 (GOLPH3) (protein, UniProt Q1RMW9 1-298)
chain: MTSLTQRSSGLVQRRTEASRNAADKERAAGGGGGNDEDDAQSRRDEQDDDDKGDSKETRLTLMEEVLLLGLKDREGYTSFWNDCISSGLRGCMLIELALRGRLQLEACGMRRKSLLTRKVICKSDAPTGDVLLDEALKHVKETQPPETVQNWIELLSGETWNPLKLHYQLRNVRERLAKNLVEKGVLTTEKQNFLLFDMTTHPLTNNSIKQRLIKKVQEAVLDKWVNDPHRMDKRLLALLYLAHASDVLENAFAPLLDEQYDVATKRVRQLLDLDPEVECLKAGTNEVLWAVVAAFTK

Results are given in words; binding and its absence hold for the method and conditions named. In cells and extracts the contact can be indirect. A result given as binding can be weak or reduced; the word gives no strength. Each block holds one binder with its values, some of them ahead of it.
